PubChem BioAssay AID686937, Drosophila RNAi Screening Center, 2013
The screen tested about 23,000 reagents; shown is an unselected part of those with a known target gene and a result. 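Reduced-secretion tags in replicate 1 do not always agree with the z-scores; no criterion for assigning the tags was given.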 Not given: the amount of reagent.

Purpose: 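Genes whose loss weakens secretory pathway function in fly cells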 (primary screen)
System: Drosophila S2 cells expressing secreted horseradish peroxidase
Reagents: long dsRNA against Drosophila genes
Timing: about 5.5 days (5 days dsRNA, then 12 h reporter induction)
Treatment: reporter expression induced after 5 days of dsRNA, read 12 h later; inducer not stated
Read-out: 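Chemiluminescent measurement of peroxidase in the medium 12 h after reporter induction, following 5 days of dsRNA, given as a z-score per plate; higher means more secretion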
Scale: z-score: higher = more reporter secreted into medium

| target gene | DRSC id | z-score, replicate 1 | z-score, replicate 2 | z-score, replicate 3 | z-score, replicate 4 | phenotype, replicate 1 |
| --- | --- | --- | --- | --- | --- | --- |
| CG6962 | DRSC16153 | -0.41 | -1.26 | – | – | – |
| CR18217 (pseudo) | DRSC21506 | 0.91 | 0.01 | – | – | – |
| Ho (Heme oxygenase) | DRSC14939 | 0.33 | 0.15 | – | – | – |
| Mob2 | DRSC09117 | -1.68 | -0.85 | – | – | reduced secretion |
| Mob2 | DRSC09119 | 0.58 | 0.41 | – | – | – |
| Mob2 | DRSC09856 | 0.63 | 0.2 | – | – | – |
| veg (retired record) | DRSC07714 | 0.09 | 0.32 | – | – | – |
| ko (knockout) | DRSC11893 | 0.26 | 0.4 | – | – | – |
| Hn (Henna) | DRSC11184 | 0.37 | 0.31 | – | – | – |
| ND-B14.5AL (NADH dehydrogenase (ubiquinone) B14.5 A subunit-like) | DRSC11795 | -0.03 | 0.42 | – | – | – |
| Lectin-galC1 (Galactose-specific C-type lectin) | DRSC03362 | 0.31 | 0.29 | – | – | – |
| CG13716 | DRSC08325 | -0.85 | 0.39 | 0.29 | -0.61 | reduced secretion |
| CG13716 | DRSC22815 | -2.14 | -1.47 | – | – | reduced secretion |
| CG42566 | DRSC03949 | 0.11 | 0.27 | – | – | – |
| rdgA (retinal degeneration A) | DRSC17863 | -0.1 | -0.36 | – | – | – |
| rdgA (retinal degeneration A) | DRSC18036 | -0.1 | 0.18 | – | – | – |
| rdgA (retinal degeneration A) | DRSC18827 | 0.37 | 0.35 | – | – | – |
| AIMP3 (aaRS-interacting multifunctional protein 3) | DRSC04500 | 0.42 | 0.35 | – | – | – |
| CG12971 | DRSC11681 | 0.3 | 0.33 | – | – | – |
| CG16965 | DRSC02547 | 0.43 | 0.47 | – | – | – |
| Atg12 (Autophagy-related 12) | DRSC09803 | 0.59 | 0.21 | – | – | – |
| mIF2 (mitochondrial translation initiation factor 2) | DRSC14510 | 0.37 | 0.18 | – | – | – |
| Sf3b2 (Splicing factor 3b subunit 2) | DRSC00619 | -4.41 | -2.82 | – | – | reduced secretion |
| Sps2 (Selenophosphate synthetase 2) | DRSC03441 | 0.02 | 0.2 | – | – | – |
| CG15022 | DRSC08476 | 0.35 | -0.88 | – | – | – |
| CG13318 | DRSC14581 | 0.41 | 0.38 | – | – | – |
| CG6479 | DRSC10647 | 0.01 | -0.03 | – | – | – |
| Rh50 | DRSC08692 | 0.42 | 0.18 | – | – | – |
| CG16762 | DRSC08493 | 0.15 | 0.22 | – | – | – |
| Ugt35B1 (UDP-glycosyltransferase family 35 member B1) | DRSC16893 | 0.21 | 0.25 | – | – | – |

Sorted by “z-score, replicate 2” (descending): some entries from above.
| target gene | DRSC id | z-score, replicate 1 | z-score, replicate 2 | z-score, replicate 3 | z-score, replicate 4 | phenotype, replicate 1 |
| --- | --- | --- | --- | --- | --- | --- |
| ND-B14.5AL (NADH dehydrogenase (ubiquinone) B14.5 A subunit-like) | DRSC11795 | -0.03 | 0.42 | – | – | – |
| Mob2 | DRSC09119 | 0.58 | 0.41 | – | – | – |
| ko (knockout) | DRSC11893 | 0.26 | 0.4 | – | – | – |
| CG13716 | DRSC08325 | -0.85 | 0.39 | 0.29 | -0.61 | reduced secretion |
| veg (retired record) | DRSC07714 | 0.09 | 0.32 | – | – | – |
| Hn (Henna) | DRSC11184 | 0.37 | 0.31 | – | – | – |
| Lectin-galC1 (Galactose-specific C-type lectin) | DRSC03362 | 0.31 | 0.29 | – | – | – |
| CG42566 | DRSC03949 | 0.11 | 0.27 | – | – | – |
| Mob2 | DRSC09856 | 0.63 | 0.2 | – | – | – |
| Ho (Heme oxygenase) | DRSC14939 | 0.33 | 0.15 | – | – | – |
| rdgA (retinal degeneration A) | DRSC17863 | -0.1 | -0.36 | – | – | – |
| Mob2 | DRSC09117 | -1.68 | -0.85 | – | – | reduced secretion |
| CG13716 | DRSC22815 | -2.14 | -1.47 | – | – | reduced secretion |

Further results:
| target gene | DRSC id | z-score, replicate 1 | z-score, replicate 2 | z-score, replicate 3 | z-score, replicate 4 | phenotype, replicate 1 |
| --- | --- | --- | --- | --- | --- | --- |
| CG2772 | DRSC00530 | -0.23 | 0.17 | – | – | – |
| cato (cousin of atonal) | DRSC07589 | 0.37 | 0.11 | – | – | – |
| CG33346 | DRSC22898 | -0.37 | -0.2 | – | – | – |
| fd102C (forkhead domain 102C) | DRSC17203 | -0.08 | -0.19 | – | – | – |
| CG31337 | DRSC12981 | -0.31 | 0.23 | – | – | – |
| CG15236 | DRSC04970 | 0.41 | 0.39 | – | – | – |
| CG15236 | DRSC21396 | 2.04 | 2.02 | – | – | – |
| CG7692 | DRSC10902 | 0.4 | 0.36 | – | – | – |
| Osi9 (Osiris 9) | DRSC12278 | -0.83 | -0.56 | – | – | – |
| Adgf-D (Adenosine deaminase-related growth factor D) | DRSC16521 | 0.08 | 0.24 | – | – | – |
| swa (swallow) | DRSC18842 | 0.53 | 0.56 | – | – | – |
| IA-2 (IA-2 protein tyrosine phosphatase) | DRSC00304 | 0.67 | 0.35 | 0.17 | -0.31 | – |
| IA-2 (IA-2 protein tyrosine phosphatase) | DRSC00652 | 0 | 0.36 | – | – | – |
| l(2)41Ab (lethal (2) 41Ab) | DRSC21007 | -0.09 | 0.32 | – | – | – |
| AlaRS (Alanyl-tRNA synthetase) | DRSC01851 | 0.43 | 0.22 | – | – | – |
| CG12239 | DRSC17832 | -0.05 | -0.02 | – | – | – |
| CG13807 | DRSC08342 | 0.23 | 0.12 | – | – | – |
| TrissinR (Trissin receptor) | DRSC02334 | 0.09 | 0.07 | – | – | – |
| TrissinR (Trissin receptor) | DRSC02335 | 0.32 | 0.3 | – | – | – |
| TrissinR (Trissin receptor) | DRSC02336 | 0.29 | -0.19 | – | – | – |
| CG1907 | DRSC15399 | 0 | 0.17 | – | – | – |
| DIP1 (DISCO Interacting Protein 1) | DRSC20818 | 0.5 | 0.31 | -0.24 | -0.8 | – |
| sna (snail) | DRSC03613 | -0.36 | 0.25 | – | – | – |
| alpha-Est7 (alpha-Esterase-7) | DRSC12619 | 0.74 | 0.56 | – | – | – |
| RpL13 (Ribosomal protein L13) | DRSC03416 | 0.52 | 0.8 | – | – | reduced secretion |
| CrebA (Cyclic-AMP response element binding protein A) | DRSC11122 | 0.02 | 0.24 | – | – | – |
| CG11563 | DRSC14327 | 0.52 | 0.31 | – | – | – |
| Obp56g (Odorant-binding protein 56g) | DRSC06432 | 0.11 | 0.09 | – | – | – |
| CG15336 | DRSC18019 | 0.37 | 0.57 | – | – | – |
| CG13032 | DRSC09912 | 0.41 | 0.35 | – | – | – |
| POSH (Plenty of SH3s) | DRSC07499 | 0.51 | 0.34 | – | – | – |
| mRpS18A (mitochondrial ribosomal protein S18A) | DRSC14369 | -0.31 | -0.48 | – | – | – |
| CG17329 | DRSC01926 | -0.03 | 0.13 | – | – | – |
| dom (domino) | DRSC04558 | -1.88 | -1.37 | – | – | reduced secretion |
| dom (domino) | DRSC04559 | -0.33 | -0.51 | – | – | – |
| Ccdc39 (Coiled-coil domain containing protein 39) | DRSC12286 | -0.13 | 0.19 | – | – | – |
| CG7763 | DRSC07043 | 0.35 | 0.43 | – | – | – |
| Cyp4g15 (Cytochrome P450 4g15) | DRSC20240 | 0.36 | 0.14 | – | – | – |
| EMC7 (ER membrane protein complex subunit 7) | DRSC07162 | 0.21 | 0.33 | – | – | – |
| mew (multiple edematous wings) | DRSC18971 | 0.13 | 0.58 | – | – | – |
| mew (multiple edematous wings) | DRSC20352 | 0.17 | 0.28 | – | – | – |
| CG32487 | DRSC21745 | -0.21 | -0.37 | – | – | – |
| Acp26Ab (Accessory gland protein 26Ab) | DRSC01856 | -7.63 | 0.27 | – | – | reduced secretion |
| CG13613 | DRSC14616 | 0.12 | 0.32 | – | – | – |
| CG5070 | DRSC19932 | 0.16 | 0.12 | – | – | – |
| CG15027 | DRSC19608 | 0 | 0.22 | – | – | – |
| CG12768 | DRSC11680 | 0.2 | -0.22 | – | – | – |
| Ccp84Ae | DRSC12590 | 0.28 | 0.58 | 0.14 | 0.25 | – |
| mmy (mummy) | DRSC02002 | -0.64 | -1.26 | – | – | – |
| Trxr2 (Thioredoxin reductase 2) | DRSC11900 | -2.39 | 0.4 | – | – | – |
| lncRNA:roX2 (long non-coding RNA on the X 2) | DRSC22237 | 0.31 | 0.79 | – | – | – |
| CG31674 | DRSC03208 | 0.55 | 0.02 | – | – | – |
